In patent US11891634B2, “PDE5A destabilizing domains” (The Board of Trustees of the Leland Stanford Junior …, priority 2017, dated 2024):
For at least one compound, name, drawing or mass did not settle the structure.

Test system: HCT 116 cells transduced with the PDE5A DD derived GFP constructs
Experiment: Response to Vardenafil, GFP expression by FACS in HCT116
Assay type: cell-based, human
Settings: 10 μM Vardenafil, HCT116, compared with Table 2 and Table 6
Description: Mutations were created in PDE5A (535-860) catalytic domain using site directed mutagenesis and the mutants were cloned as AcGFP fusion into pELNS vector carrying mCherry marker and packaged in lentiviral vectors. HCT116 cells were transduced with the constructs and stable integrants were selected by cell sorting using mCherry marker. Cells were treated with vehicle (dimethyl sulfoxide, DMSO) or 10 μM Vardenafil (VDF) for 48 hours. Following the treatment, cells were analyzed for GFP expression using FACS. Basal expression was calculated as the ratio of GFP signal in the absence of ligand for a given cell line to auto fluorescence of parental HCT-116 cells. Stabilization ratio was calculated as the ratio of the GFP signal observed in the presence of stabilizing ligand to the signal from the same cell line in the absence of ligand.
HCT 116 cells transduced with the PDE5A DD derived GFP constructs were also tested with increasing doses of Vardenafil. The HCT116 cells were incubated for 48 hours with Vardenafil starting at a dose of 0.002 μM to 30 μM. […] The mean fluorescence intensity was calculated for each sample and used to calculate the stabilization ratios as well as the basal expression for each construct. The GFP expression was measured using flow cytometry and the mean fluorescence intensity (MFI) was calculated for each sample. […]

## CCCc1nc(C)c2c(=O)[nH]c(-c3cc(S(=O)(=O)N4CCN(CC)CC4)ccc3OCC)nn12 [Vardenafil, reference compound]
  stabilization of PDE5A DDs, Vardenafil compared with sildenafil: more potent that sildenafil
